PubChem BioAssay AID743454, Peter MacCallum Cancer Centre – 2014
Shown is a random part of about 18,000 reagents. Over the whole deposit, 450 (2.5%) are marked active. 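Single biological run; no consistent viability z cut-off exists, so the class columns, not z-scores, define the calls.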

Purpose: 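Knock-downs lowering viability or raising caspase 3/7 activity in vorinostat-treated resistant cells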 (primary screen)
Cells: human HCT116-VR colon cancer cells, selected for vorinostat resistance
Reagents: siRNA pool against human genes, 40 nM siRNA pool
Timing: vorinostat for 24 h, read-out about 72 h after transfection
Challenge: vorinostat at 2.5 µM final
Measurement: 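Cell viability by CellTiter-Fluor and caspase 3/7 activity by luminescence, each scaled to mock wells per plate, duplicates averaged, then robust z-scored over all plates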
Reading the numbers: viability robust z-score: higher = more viable cells than screen typical; caspase robust z-score: higher = more caspase 3/7 activity than screen typical
Call rule: 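a knock-down is a hit when classed RV1 or RV2 for lowered viability, or CA1 or CA2 for caspase activation; those lethal without drug were dropped; hits were retested singly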

SERPING1
- viability hit class: no change
- caspase hit class: no change
- viability robust z-score: -0.05
- caspase robust z-score: 0.67
- outcome: inactive

SSX1
- viability hit class: no change
- caspase hit class: no change
- viability robust z-score: -0.92
- caspase robust z-score: -0.06
- outcome: inactive

KCTD8
- viability hit class: no change
- caspase hit class: no change
- viability robust z-score: -0.18
- caspase robust z-score: 3.55
- outcome: inactive

JMJD6
- viability hit class: no change
- caspase hit class: no change
- viability robust z-score: -1.56
- caspase robust z-score: 5.05
- outcome: inactive

STARD7
- viability hit class: no change
- caspase hit class: no change
- viability robust z-score: 0.2
- caspase robust z-score: 3.21
- outcome: inactive

COXFA4L3
- viability hit class: no change
- caspase hit class: no change
- viability robust z-score: -2.49
- caspase robust z-score: -0.83
- outcome: inactive

BAZ2A
- viability hit class: no change
- caspase hit class: no change
- viability robust z-score: 0.7
- caspase robust z-score: -0.23
- outcome: inactive

ADAM22
- viability hit class: no change
- caspase hit class: no change
- viability robust z-score: 1.3
- caspase robust z-score: 0.16
- outcome: inactive

Records listed so far whose gene name begins with S or s:
SERPING1
- viability hit class: no change
- caspase hit class: no change
- viability robust z-score: -0.05
- caspase robust z-score: 0.67
- outcome: inactive

SSX1
- viability hit class: no change
- caspase hit class: no change
- viability robust z-score: -0.92
- caspase robust z-score: -0.06
- outcome: inactive

STARD7
- viability hit class: no change
- caspase hit class: no change
- viability robust z-score: 0.2
- caspase robust z-score: 3.21
- outcome: inactive

Continued.
NTNG2
- viability hit class: no change
- caspase hit class: no change
- viability robust z-score: -0.61
- caspase robust z-score: 0.96
- outcome: inactive

SERPINB5
- viability hit class: no change
- caspase hit class: no change
- viability robust z-score: 0.76
- caspase robust z-score: 1.1
- outcome: inactive

RPUSD1
- viability hit class: no change
- caspase hit class: no change
- viability robust z-score: 0.36
- caspase robust z-score: 0.27
- outcome: inactive

NEMP1
- viability hit class: no change
- caspase hit class: no change
- viability robust z-score: -1.35
- caspase robust z-score: -1.15
- outcome: inactive
